Experimental data: PubChem BioAssay AID652243 (Drosophila RNAi Screening Center, 2013)

Aim: 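Knock-downs that decrease or increase androgen receptor reporter signal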 (primary screen)
Cells: Drosophila S2R+ cells
Reagent: long dsRNA against Drosophila genes
Duration: 72 h (48 h, then 24 h hormone)
Treatment: synthetic androgen R1881 at 10 nM for 24 h
Read-out: 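Firefly light from an androgen-responsive reporter and Renilla control light per well, raw and unnormalised, for each of two replicates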
Scale: firefly reporter light: higher = more light from androgen-responsive reporter; Renilla control light: higher = more constitutive control signal (cell number, transfection)
Hit rule: 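Hit when the log firefly-to-Renilla ratio dropped or increased by a fixed fold versus the mean of GFP or LacZ controls across duplicate plates; lowering cut given as 1.5 and as 3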
Calls: active = hit: reporter lowered or raised; inactive = no hit
The deposit covers about 24,000 reagents; below is a random part of those with a known target gene and a result. Of all reagents, 246 (1%) were called active. 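Plates not normalised; calls are printed but the firefly/Renilla ratio behind them is not deposited; fold cut for lowering reported inconsistently.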 Raw values are not corrected between plates. Reagent sequences are not shown. The record does not give: the amount of reagent.

| predicted target | DRSC id | firefly reporter light, replicate 1 | firefly reporter light, replicate 2 | Renilla control light, replicate 1 | Renilla control light, replicate 2 | Outcome |
| --- | --- | --- | --- | --- | --- | --- |
| RpL18A (Ribosomal protein L18A) | DRSC07538 | 71602 | 87069 | 8.28e5 | 8.28e5 | inactive |
| CG13358 | DRSC18534 | 1.92e5 | 2.62e5 | 3.00e6 | 2.86e6 | inactive |
| CG13358 | DRSC23742 | 1.03e6 | 1.07e6 | 9.41e5 | 1.12e6 | inactive |
| CG10035 | DRSC14177 | 2.13e5 | 2.46e5 | 2.75e6 | 2.76e6 | inactive |
| CG10035 | DRSC28663 | 7.40e5 | 6.47e5 | 1.23e6 | 1.40e6 | inactive |
| Peritrophin-A (Peritrophin A) | DRSC20570 | 1.18e5 | 86041 | 7.17e5 | 9.02e5 | inactive |
| Atu (Another transcription unit) | DRSC12123 | 18936 | 32455 | 2.06e5 | 2.46e5 | inactive |
| Yif1 (Yip1-interacting factor 1) | DRSC15817 | 1.46e5 | 1.40e5 | 1.28e6 | 2.39e6 | inactive |
| dia (diaphanous) | DRSC03519 | 83223 | 76107 | 1.28e6 | 1.14e6 | inactive |
| dia (diaphanous) | DRSC24127 | 6.26e5 | 5.65e5 | 3.79e5 | 3.98e5 | inactive |
| Rpn8 (Regulatory particle non-ATPase 8) | DRSC04624 | 95427 | 1.16e5 | 8.66e5 | 6.16e5 | inactive |
| Rpn8 (Regulatory particle non-ATPase 8) | DRSC29897 | 3.19e5 | 1.95e5 | 7.67e5 | 8.36e5 | inactive |
| Dgkepsilon (Diacyl glycerol kinase epsilon) | DRSC07399 | 1.14e6 | 1.22e6 | 1.84e6 | 2.09e6 | inactive |
| Dgkepsilon (Diacyl glycerol kinase epsilon) | DRSC36733 | – | – | – | – | inactive |
| CG42733 | DRSC25375 | 8.18e5 | 8.23e5 | 1.02e6 | 1.11e6 | inactive |
| CG5756 | DRSC06950 | 95348 | 73153 | 1.58e6 | 1.58e6 | inactive |
| CG5756 | DRSC28245 | 4.30e5 | 5.83e5 | 9.32e5 | 1.62e6 | inactive |
| Brd8 (Bromodomain containing 8) | DRSC14866 | 1.28e5 | 79693 | 9.86e5 | 7.07e5 | inactive |
| Brd8 (Bromodomain containing 8) | DRSC28811 | 4.73e5 | 3.92e5 | 1.72e6 | 1.85e6 | inactive |
| CG6602 | DRSC10673 | 46366 | 60443 | 7.81e5 | 6.78e5 | inactive |
| CG34345 | DRSC02126 | 1.56e5 | 2.09e5 | 1.63e6 | 1.12e6 | inactive |
| CG34345 | DRSC37753 | 6.19e5 | 4.71e5 | 1.65e6 | 1.11e6 | inactive |
| CG4465 | DRSC15584 | 2.86e5 | 2.32e5 | 3.07e6 | 2.95e6 | inactive |
| CG13045 | DRSC09926 | 1.15e5 | 2.20e5 | 1.08e6 | 1.70e6 | inactive |
| CG13045 | DRSC25454 | 8.31e5 | 8.34e5 | 1.61e6 | 1.39e6 | inactive |

An excerpt from the list above, as a working copy:
| predicted target | DRSC id | firefly reporter light, replicate 1 | firefly reporter light, replicate 2 | Renilla control light, replicate 1 | Renilla control light, replicate 2 | Outcome |
| --- | --- | --- | --- | --- | --- | --- |
| Peritrophin-A (Peritrophin A) | DRSC20570 | 1.18e5 | 86041 | 7.17e5 | 9.02e5 | inactive |
| Atu (Another transcription unit) | DRSC12123 | 18936 | 32455 | 2.06e5 | 2.46e5 | inactive |
| Yif1 (Yip1-interacting factor 1) | DRSC15817 | 1.46e5 | 1.40e5 | 1.28e6 | 2.39e6 | inactive |
| dia (diaphanous) | DRSC03519 | 83223 | 76107 | 1.28e6 | 1.14e6 | inactive |
